The list shows only some results of the screen, not a fair sample: it gathers tests that were run many times, whatever their T/C, doses with no T/C, and many T/C values between a quarter and a half above the control. Further doses and runs are listed elsewhere. T/C: endpoint of the treated group in % of that of the vehicle group. Some entries give survivors of the animals treated and no T/C: the source holds a T/C of zero for them, seemingly a mark for toxic or unscored doses. Some doses without a T/C left all or most animals alive at the check, yet need not have been tolerated: the source hardly ever lists a survival T/C far under the control, and the zero likely stands for such cases as well. Survivors were counted at the toxicity check, usually on the fifth day, unless a day is given; later deaths do not show. Schedules are NCI's codes, taken here to give the interval after Q, in days (D) or hours (H), and the number of doses after X. Some entries were tested several times; the values are given in rising order. For survival time, this PubChem deposit counts one and a half times the control or more as active, and values a quarter to a half above the control carry no call in these data; other NCI protocols may use other cut-offs. Some T/C values are followed by the survivors on the day toxicity was checked, most often the fifth; where none is given, no animal had died by that day.

Among the data in PubChem BioAssay AID330 (DTP/NCI, 2004) are survivor count and T/C values, retold here.

The test system of this test is P388 leukemia ip, CD2F1 mice, survival T/C. In words: NCI In Vivo Anticancer Drug Screen. Data for tumor model P388 Leukemia (intraperitoneal) in CD2F1 (CDF1) mice. The conditions noted are these: T/C endpoint: median survival time, higher T/C = longer survival.
Setting [1] is: dose: 50.0 mg/kg/injection, schedule: Q01DX005 (ip), vehicle: Klucel (hydroxypropylcellulose) (HPC).
Where [2] appears, read: dose: 70.0 mg/kg/injection, schedule: Q01DX009 (ip), vehicle: Klucel (hydroxypropylcellulose) (HPC).
Where [3] appears, read: dose: 100.0 mg/kg/injection, schedule: Q01DX009 (ip), vehicle: Klucel (hydroxypropylcellulose) (HPC).
[4] abbreviates: dose: 200.0 mg/kg/injection, schedule: Q01DX009 (ip), vehicle: Klucel (hydroxypropylcellulose) (HPC).
The mark [5] stands for this setting: dose: 50.0 mg/kg/injection, schedule: Q01DX009 (ip), vehicle: saline.
The mark [6] stands for this setting: dose: 100.0 mg/kg/injection, schedule: Q01DX009 (ip), vehicle: saline.
The mark [7] stands for this setting: dose: 200.0 mg/kg/injection, schedule: Q01DX009 (ip), vehicle: saline.
Setting [8] is: dose: 200.0 mg/kg/injection, schedule: Q01DX009 (ip), vehicle: suspension in saline.

In the case of `COC/C(Br)=C\SC#N` (tested in a mixture with another compound), the survivor count by setting is: (dose: 15.0 mg/kg/injection, schedule: Q01DX005 (ip), vehicle: saline with Tween-80) 0 of 6; (dose: 60.0 mg/kg/injection, schedule: Q01DX005 (ip), vehicle: saline with Tween-80) 0 of 6; (dose: 120.0 mg/kg/injection, schedule: Q01DX005 (ip), vehicle: saline with Tween-80) 0 of 6; (dose: 240.0 mg/kg/injection, schedule: Q01DX005 (ip), vehicle: saline with Tween-80) 0 of 6.

Turning to `CCNC(=O)/C=C(C)/C=C/C=C(C)/C=C/c1c(C)cc(OC)c(C)c1C`, the survivor count under setting [1] is given as 6 of 6.

For the compound `CSc1nc(SC)c2c(CN=[N+]=[N-])c(Br)n(Cc3ccccc3)c2n1`, the survivor count (dose: 12.5 mg/kg/injection, schedule: Q01DX001 (ip), vehicle: saline with Tween-80) is listed as 6 of 6; the survivor count (dose: 25.0 mg/kg/injection, schedule: Q01DX001 (ip), vehicle: saline with Tween-80) is recorded as 6 of 6; the survivor count (dose: 50.0 mg/kg/injection, schedule: Q01DX001 (ip), vehicle: saline with Tween-80) was 6 of 6; the survivor count (dose: 100.0 mg/kg/injection, schedule: Q01DX001 (ip), vehicle: saline with Tween-80) is 6 of 6; the survivor count (dose: 200.0 mg/kg/injection, schedule: Q01DX001 (ip), vehicle: saline with Tween-80) is given as 6 of 6; the survivor count (dose: 400.0 mg/kg/injection, schedule: Q01DX001 (ip), vehicle: saline with Tween-80) is given as 6 of 6.

`[CH3][Sn]([CH3])([n]1cnc2ccccc21)[n]1cnc2ccccc21`: the survivor count under setting [1] is on record as 1 of 6; the survivor count (dose: 100.0 mg/kg/injection, schedule: Q01DX005 (ip), vehicle: Klucel (hydroxypropylcellulose) (HPC)) is listed as 4 of 6; the survivor count (dose: 200.0 mg/kg/injection, schedule: Q01DX005 (ip), vehicle: Klucel (hydroxypropylcellulose) (HPC)) is given as 0 of 6.

Consider `CC[C@@]1(O)C[C@H](OC2CC(N(C)C)C(O)C(C)O2)c2c(cc3c(c2O)C(=O)c2c(O)ccc(O)c2C3=O)[C@H]1C(=O)OC` (some centres undefined), for which the T/C reads like this: (dose: 3.0 mg/kg/injection, schedule: Q01DX009 (ip), vehicle: distilled water + Tween-80) 130 % of control; (dose: 6.0 mg/kg/injection, schedule: Q01DX009 (ip), vehicle: distilled water + Tween-80) 130 % of control; (dose: 12.0 mg/kg/injection, schedule: Q01DX009 (ip), vehicle: distilled water + Tween-80) 145 % of control; (dose: 12.5 mg/kg/injection, schedule: Q01DX009 (ip), vehicle: other) 131 % of control. The survivor count was 4 of 6 (dose: 24.0 mg/kg/injection, schedule: Q01DX009 (ip), vehicle: distilled water + Tween-80) and 0 of 6 (dose: 25.0 mg/kg/injection, schedule: Q01DX009 (ip), vehicle: other).

In the case of `CC[C@@H]1C[C@@H]2CN3CCc4c([nH]c5cc(Cc6ccc(OC)c(OC)c6)c(OC)cc45)C(C(=O)OC)(C2)C13`, the survivor count (dose: 2.0 mg/kg/injection, schedule: Q01DX009 (ip), vehicle: Klucel (hydroxypropylcellulose) (HPC)) was 6 of 6.

As to `COC1=C(Br)[C@H](O)[C@](O)(CC#N)C=C1Br`, the T/C was 127 and 128 % of control (dose: 17.5 mg/kg/injection, schedule: Q01DX009 (ip), vehicle: Klucel (hydroxypropylcellulose) (HPC)); 127 and 144 % of control (dose: 35.0 mg/kg/injection, schedule: Q01DX009 (ip), vehicle: Klucel (hydroxypropylcellulose) (HPC)); 135 % of control [5 of 6 alive] under setting [2]. For the same compound, the survivor count by setting is: under setting [2], 5 of 6; (dose: 140.0 mg/kg/injection, schedule: Q01DX009 (ip), vehicle: Klucel (hydroxypropylcellulose) (HPC)) 2 of 6.

Turning to `C=C1C(=O)OC2/C=C(/C)C3(O)OC(C)(CC(OC(=O)C(C)C)C12)CC3OC(C)=O` (centres undefined), the survivor count is, setting by setting: under setting [3], 2 of 6; under setting [4], 0 of 6.

Turning to `CC(C)(C)C1=CC2(C(C)(C)C)OC2C(=O)C1=O` (centres undefined), the survivor count is reported as 0 of 6 under setting [5], 0 of 6 under setting [6] and 0 of 6 under setting [7].

`CCCCCCCCCCCCCCCCNCC(O)CN` (centres undefined): the survivor count (dose: 25.0 mg/kg/injection, schedule: Q01DX009 (ip), vehicle: saline with Tween-80) was 1 of 5.

For the compound `CC(C)(C)C1(C(C)(C)C)CO1`, the survivor count by setting is: (dose: 25.0 mg/kg/injection, schedule: Q01DX009 (ip), vehicle: saline) 5 of 6; under setting [5], 6 of 6; under setting [6], 6 of 6; under setting [7], 0 of 6.

Turning to `C=C1C(C)C2C(Cc3ccccc3)NC(=O)C23OC(=O)/C=C\CC(=O)CCC(C)C/C=C/C3C1O` (centres undefined), the survivor count reads like this: (dose: 20.0 mg/kg/injection, schedule: Q01DX009 (ip), vehicle: Klucel (hydroxypropylcellulose) (HPC)) 1 of 6; (dose: 40.0 mg/kg/injection, schedule: Q01DX009 (ip), vehicle: Klucel (hydroxypropylcellulose) (HPC)) 0 of 6.

Turning to `O=C(O)C(F)(F)F.O=C(O)C(F)(F)F.O=C(O)C(F)(F)F.O=C(O)C(F)(F)F.[Rh].[Rh]`, the survivor count is on record as 6 of 6 (dose: 12.5 mg/kg/injection, schedule: Q01DX009 (ip), vehicle: saline) and 3 of 6 under setting [8].

As to `Clc1ccc(-n2nnc3cc(Cl)ccc32)c(Cl)c1`, the survivor count is, setting by setting: (dose: 12.5 mg/kg/injection, schedule: Q01DX005 (ip), vehicle: saline with Tween-80) 6 of 6; (dose: 50.0 mg/kg/injection, schedule: Q01DX005 (ip), vehicle: saline with Tween-80) 6 of 6; (dose: 100.0 mg/kg/injection, schedule: Q01DX005 (ip), vehicle: saline with Tween-80) 6 of 6; (dose: 200.0 mg/kg/injection, schedule: Q01DX005 (ip), vehicle: saline with Tween-80) 6 of 6.

With `CNC(=O)OCc1c(COC(=O)NC)c(-c2ccc(Cl)cc2)n(C)c1C`, under “dose: 6.25 mg/kg/injection, schedule: Q01DX009 (ip), vehicle: distilled water + Tween-80”, the T/C is 142 % of control. For the same compound, the survivor count (dose: 50.0 mg/kg/injection, schedule: Q01DX009 (ip), vehicle: distilled water + Tween-80) is 5 of 6 and 6 of 6; the survivor count (dose: 100.0 mg/kg/injection, schedule: Q01DX009 (ip), vehicle: distilled water + Tween-80) is 0 of 6 and 2 of 6.

As to `O=C1OC(c2ccc(Cl)c(Cl)c2)C(=O)C1=O` (centres undefined), the survivor count by setting is: (dose: 30.0 mg/kg/injection, schedule: Q01DX005 (ip), vehicle: Klucel + Tween-80) 4 of 6; (dose: 60.0 mg/kg/injection, schedule: Q01DX005 (ip), vehicle: Klucel + Tween-80) 0 of 6; (dose: 120.0 mg/kg/injection, schedule: Q01DX005 (ip), vehicle: Klucel + Tween-80) 0 of 6; (dose: 240.0 mg/kg/injection, schedule: Q01DX005 (ip), vehicle: Klucel + Tween-80) 0 of 6.

Turning to `O=[N+]([O-])c1ccc(Sc2ncnc3c2ncn3C2OC(CO)C(O)C2O)c2nonc12` (centres undefined), the T/C (dose: 12.5 mg/kg/injection, schedule: Q01DX009 (ip), vehicle: suspension in saline) was 127 % of control; the T/C (dose: 25.0 mg/kg/injection, schedule: Q01DX009 (ip), vehicle: suspension in saline) was 125 and 137 % of control. Besides, the survivor count runs as follows: (dose: 100.0 mg/kg/injection, schedule: Q01DX009 (ip), vehicle: suspension in saline) 3 of 5 and 6 of 6; under setting [8], 2 of 6.

Consider `NN1C(=O)C2C3C=CC(C4CC34)C2C1=O` (centres undefined), for which the survivor count reads like this: (dose: 25.0 mg/kg/injection, schedule: Q01DX009 (ip), vehicle: Klucel (hydroxypropylcellulose) (HPC)) 5 of 6; (dose: 50.0 mg/kg/injection, schedule: Q01DX009 (ip), vehicle: Klucel (hydroxypropylcellulose) (HPC)) 0 of 6; under setting [3], 0 of 6; under setting [4], 0 of 6.
